Data taken from patent US4822778A, “Membrane stabilizing phenoxy-piperidine compounds and pharmaceutical compositions employing such compounds” (Aberg; Gunnar, priority 1988, dated 1989).

Assay: in vivo
Settings: mouse, sc

Work on `CCN(CC)CC(=O)Nc1c(C)cccc1C` [Lidocaine, reference compound] yielded an LD50 of 220 mg/kg.
